From patent US20060183687A1
Results are given in words; binding and its absence hold for the method and conditions named. Some results given as binding are weak or reduced against the parent protein; the word gives no strength.

Amino acid sequences for entries named in this document (tags omitted). A change or cut given only in a name is not applied to a line headed by its entry. Chains listed by the source or under a name are the forms on record and can include a tag or linker.
UniProt P63167: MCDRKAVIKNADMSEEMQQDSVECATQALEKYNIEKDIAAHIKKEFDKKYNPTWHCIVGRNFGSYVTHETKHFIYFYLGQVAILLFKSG
UniProt Q07817: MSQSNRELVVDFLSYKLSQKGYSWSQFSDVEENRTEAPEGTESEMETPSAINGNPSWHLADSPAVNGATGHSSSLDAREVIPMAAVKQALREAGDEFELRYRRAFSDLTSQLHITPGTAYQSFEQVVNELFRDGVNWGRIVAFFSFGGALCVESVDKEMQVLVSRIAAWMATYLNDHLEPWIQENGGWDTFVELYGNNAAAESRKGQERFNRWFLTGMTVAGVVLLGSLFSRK
FLAG-tagged Bcl-xL (Q07817, form named): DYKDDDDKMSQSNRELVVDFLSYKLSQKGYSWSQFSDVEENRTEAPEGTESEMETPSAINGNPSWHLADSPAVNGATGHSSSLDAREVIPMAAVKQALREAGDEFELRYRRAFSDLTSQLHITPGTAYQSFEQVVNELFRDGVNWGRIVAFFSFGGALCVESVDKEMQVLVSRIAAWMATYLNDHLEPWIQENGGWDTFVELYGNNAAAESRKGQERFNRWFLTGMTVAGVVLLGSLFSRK
UniProt O54918: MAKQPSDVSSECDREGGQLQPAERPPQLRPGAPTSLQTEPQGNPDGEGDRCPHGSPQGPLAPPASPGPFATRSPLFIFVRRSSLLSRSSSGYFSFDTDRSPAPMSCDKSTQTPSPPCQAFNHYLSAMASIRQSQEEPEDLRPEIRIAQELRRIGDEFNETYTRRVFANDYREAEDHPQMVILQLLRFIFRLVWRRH

What was measured:
[1] = target: dynein light chain (UniProt P63167); assay: reverse yeast two-hybrid system
[2] = target: Bcl-xL (wild-type) (UniProt Q07817); assay: immunoprecipitation with anti-EE from 35S-labelled co-transfected 293T cells (FIG. 7A)
[3] = target: FLAG-tagged Bcl-xL (UniProt Q07817); assay: immunoprecipitation and immunoblot from co-transfected 293T cells (FIG. 7)

| binding [1] | Substance | binding [2] | binding [3] |
| --- | --- | --- | --- |
| binds | murine BimL (wild-type) (from UniProt O54918 1-196) | – | – |
| – | EE-tagged BimL (Glu-Glu epitope-tagged mouse BimL) (from UniProt O54918 1-196) | binds | binds |
